Only a part is listed here, and it is no random draw. The calls were merged from several studies; some rest on single wells. The list shows a part of the results.
Assays:
Settings in all cases: stereoisomer not certain
[1] = tested on: T1, OR4L1
T1 sequence (whole entry): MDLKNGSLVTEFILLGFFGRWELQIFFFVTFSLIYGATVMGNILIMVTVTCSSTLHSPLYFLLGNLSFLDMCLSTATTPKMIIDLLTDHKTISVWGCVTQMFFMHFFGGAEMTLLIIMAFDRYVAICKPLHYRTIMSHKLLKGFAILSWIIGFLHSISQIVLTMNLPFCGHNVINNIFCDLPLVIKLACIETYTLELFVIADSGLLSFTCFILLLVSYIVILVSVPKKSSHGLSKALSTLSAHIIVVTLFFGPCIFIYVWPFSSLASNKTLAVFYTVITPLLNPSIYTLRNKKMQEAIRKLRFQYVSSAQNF
In short: (§1)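 Whether a receptor–molecule pair is responsive (active) rests on the original authors' judgment that its measured signal was statistically different from baseline. Pairs without that judgment are non-responsive (inactive). Sources used varied assay methods, commonly transient luciferase assays in mammalian cell lines.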

[2] = target: T2, OR4M1 (Homo sapiens) (UniProt Q8NGD0)
T2 sequence (whole entry): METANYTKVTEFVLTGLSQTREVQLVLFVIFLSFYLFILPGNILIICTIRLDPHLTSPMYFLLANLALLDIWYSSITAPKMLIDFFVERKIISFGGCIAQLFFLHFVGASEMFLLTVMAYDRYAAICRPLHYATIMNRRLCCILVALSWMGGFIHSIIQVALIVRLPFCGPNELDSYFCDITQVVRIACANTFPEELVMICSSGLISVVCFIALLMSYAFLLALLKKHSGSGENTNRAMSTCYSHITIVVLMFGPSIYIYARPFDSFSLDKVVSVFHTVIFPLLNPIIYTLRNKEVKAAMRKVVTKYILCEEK
In short: as §1

[3] = target: T3, OR4N2 (Homo sapiens) (UniProt Q8NGD1)
T3 sequence (whole entry): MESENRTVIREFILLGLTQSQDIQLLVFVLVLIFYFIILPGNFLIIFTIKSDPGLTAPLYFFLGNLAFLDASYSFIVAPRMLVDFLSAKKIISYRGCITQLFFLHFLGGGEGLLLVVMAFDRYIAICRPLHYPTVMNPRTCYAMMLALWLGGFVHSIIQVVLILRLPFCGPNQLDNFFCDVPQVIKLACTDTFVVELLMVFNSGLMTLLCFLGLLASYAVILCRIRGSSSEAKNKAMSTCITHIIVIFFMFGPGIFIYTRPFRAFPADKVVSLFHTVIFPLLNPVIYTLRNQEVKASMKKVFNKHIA
In short: as §1

[4] = target: T4, OR4N4 (Homo sapiens) (UniProt Q8N0Y3)
T4 sequence (whole entry): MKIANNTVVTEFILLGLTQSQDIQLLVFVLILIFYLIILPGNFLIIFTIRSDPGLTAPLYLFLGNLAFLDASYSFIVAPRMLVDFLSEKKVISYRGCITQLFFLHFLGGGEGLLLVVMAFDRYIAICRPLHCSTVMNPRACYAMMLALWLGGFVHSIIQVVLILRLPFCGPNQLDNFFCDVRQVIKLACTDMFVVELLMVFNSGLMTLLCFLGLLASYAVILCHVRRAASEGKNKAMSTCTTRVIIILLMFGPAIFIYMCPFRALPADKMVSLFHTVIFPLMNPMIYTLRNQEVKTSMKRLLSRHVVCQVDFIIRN
In short: as §1

[5] = target: T5, OR4N5 (Homo sapiens) (UniProt Q8IXE1)
T5 sequence (whole entry): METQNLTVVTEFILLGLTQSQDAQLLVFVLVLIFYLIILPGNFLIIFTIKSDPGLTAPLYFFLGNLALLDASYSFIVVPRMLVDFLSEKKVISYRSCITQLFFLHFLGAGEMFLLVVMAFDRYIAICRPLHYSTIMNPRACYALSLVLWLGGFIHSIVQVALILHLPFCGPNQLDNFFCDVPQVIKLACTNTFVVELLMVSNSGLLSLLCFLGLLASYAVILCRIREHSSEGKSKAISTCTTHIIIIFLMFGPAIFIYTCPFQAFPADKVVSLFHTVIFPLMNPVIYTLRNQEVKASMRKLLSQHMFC
In short: as §1

[6] = tested on: T6, OR4P4
T6 sequence (whole entry): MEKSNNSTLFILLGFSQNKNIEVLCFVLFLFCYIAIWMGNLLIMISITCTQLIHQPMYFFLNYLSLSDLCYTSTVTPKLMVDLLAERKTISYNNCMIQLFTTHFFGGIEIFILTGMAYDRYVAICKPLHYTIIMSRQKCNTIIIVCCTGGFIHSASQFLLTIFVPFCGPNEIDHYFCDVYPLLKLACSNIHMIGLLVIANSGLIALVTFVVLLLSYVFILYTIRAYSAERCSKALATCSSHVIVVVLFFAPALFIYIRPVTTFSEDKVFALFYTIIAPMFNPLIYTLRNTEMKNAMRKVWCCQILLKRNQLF
In short: as §1

[7] = tested on: T7, OR4P4; remark: listed apart in the source
T7 sequence (whole entry): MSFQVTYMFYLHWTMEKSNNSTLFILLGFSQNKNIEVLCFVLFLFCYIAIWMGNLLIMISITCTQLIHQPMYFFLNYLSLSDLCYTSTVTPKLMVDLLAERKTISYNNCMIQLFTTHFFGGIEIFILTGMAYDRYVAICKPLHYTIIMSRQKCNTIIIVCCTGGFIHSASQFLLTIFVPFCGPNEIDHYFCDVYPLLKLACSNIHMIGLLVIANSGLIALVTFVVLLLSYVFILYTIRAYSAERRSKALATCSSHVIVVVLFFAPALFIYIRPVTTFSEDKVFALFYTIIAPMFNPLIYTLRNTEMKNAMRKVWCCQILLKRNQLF
In short: as §1

[8] = target: T8, OR4Q3 (Homo sapiens) (UniProt Q8NH05)
T8 sequence (whole entry): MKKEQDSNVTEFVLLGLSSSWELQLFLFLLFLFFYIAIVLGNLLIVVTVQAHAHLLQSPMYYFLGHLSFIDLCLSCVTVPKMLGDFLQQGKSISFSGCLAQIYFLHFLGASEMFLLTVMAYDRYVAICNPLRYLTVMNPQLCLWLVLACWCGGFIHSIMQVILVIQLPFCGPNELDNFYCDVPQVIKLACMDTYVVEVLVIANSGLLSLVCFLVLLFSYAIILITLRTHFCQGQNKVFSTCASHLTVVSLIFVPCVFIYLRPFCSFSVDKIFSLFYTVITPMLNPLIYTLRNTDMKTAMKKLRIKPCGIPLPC
In short: as §1

[9] = target: T9, OR4S1 (Homo sapiens) (UniProt Q8NGB4)
T9 sequence (whole entry): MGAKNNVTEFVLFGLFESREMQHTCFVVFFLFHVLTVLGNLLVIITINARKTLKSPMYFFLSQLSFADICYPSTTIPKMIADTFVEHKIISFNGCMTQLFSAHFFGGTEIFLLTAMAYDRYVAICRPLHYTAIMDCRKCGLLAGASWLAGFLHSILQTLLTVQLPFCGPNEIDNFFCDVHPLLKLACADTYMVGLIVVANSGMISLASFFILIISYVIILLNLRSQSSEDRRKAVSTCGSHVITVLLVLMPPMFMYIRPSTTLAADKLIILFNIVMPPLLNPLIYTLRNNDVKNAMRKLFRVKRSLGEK
In short: as §1

[10] = target: T10, OR4S2 (Homo sapiens) (UniProt Q8NH73)
T10 sequence (whole entry): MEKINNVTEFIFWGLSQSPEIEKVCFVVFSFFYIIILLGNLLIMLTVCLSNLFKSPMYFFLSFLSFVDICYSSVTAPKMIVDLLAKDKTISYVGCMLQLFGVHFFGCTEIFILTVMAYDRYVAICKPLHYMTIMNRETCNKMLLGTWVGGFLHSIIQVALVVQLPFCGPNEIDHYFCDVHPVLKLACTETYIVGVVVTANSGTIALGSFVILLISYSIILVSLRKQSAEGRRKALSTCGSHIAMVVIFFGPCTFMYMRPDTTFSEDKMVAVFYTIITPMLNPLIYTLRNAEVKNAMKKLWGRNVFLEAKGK
In short: as §1

Measured: odorant receptor agonist call;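 further: active if original authors judged signal statistically different from baseline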

CCCCOC(C)=O
inactive: all assays above

— the M2OR odorant receptor database
